# Patent US20060234276A1, “Methods of treatment of type 2 diabetes” (priority 1998, published 2006)
# Some entries share one result that the patent states for a list of compounds. For at least one compound, name, drawing or mass did not settle the structure. Peptide text beside a SMILES is read from it.
# What was measured:
# [1] = tested on: β-cells; experiment: Quinacrin staining of acidic vesicles in β-cells (confocal microscopy); assay type: cell-based, mouse; conditions: 48 h treated cells; 1 μM quinacrin
# [2] = tested on: mouse pancreatic islets; experiment: Static incubation of isolated pancreatic islets, insulin secretion; assay type: cell-based
# Method: Static incubation of isolated pancreatic islets. Isolation of mouse pancreatic islets was accomplished using collagenase digestion as previously described (Pontoglio et al., 1998). […] Triplicate groups of 5 islets were then incubated in borosilicate tubes containing 1 ml of KRB with the same concentration of inhibitor and various insulin secretagogues for one hour in a moving water bath at 37° C. The reaction was stopped by placing the tubes on ice and an aliquot of the buffer was removed for measurement of insulin levels. Control studies, in which the incubation mixture contained vehicle (0.1% DMSO) only, were performed using aliquots of the same batch of islets
# Assay methods. Insulin concentrations were measured by a double antibody radioimmunoassay using a rat insulin standard. The intra-assay coefficient of variation for this technique is 7%. All samples were assayed in duplicate.
smiles,measurement,setting,value
"CSCC[C@@H](C=O)NC(=O)[C@H](CC(C)C)NC(=O)[C@H](CC(C)C)NC(C)=O [ALLM, N-Ac-Leu-Leu-methioninal] (Ac-Leu-Leu-Met-aldehyde)",increase in size of quinacrin-stained vesicles,[1],more than 3 fold
same,inhibitor concentration at which effects on insulin secretory response to 20 mM glucose were seen,"[2]; 4 hr exposure, 20 mM glucose",greater than 100 μM
same,glucose concentration above which insulin secretory response was enhanced,"[2]; 4 hr exposure, no significant effects at 2, 4 or 6 mM glucose",above 8 mM glucose
same,attenuation of insulin secretory response to 20 mM glucose relative to vehicle,"[2]; 48 hours exposure, 100 μM ALLM or 200 μM E64-d",50˜60%
same,inhibition of glucose-induced insulin secretion (20 mM),"[2]; 96 h treatment, 100 μM ALLM or 200 μM E-64-d",more than 80%
